Experimental data published in PubChem BioAssay AID652054 (National Center for Advancing Translational Sciences (NCATS), 2013).
Where “and” joins values, the source holds several entries; their conditions need not be identical. Equal values may be shown once. The whole screen tested about 360,000 compounds, of which about 9,100 (2.5%) were called active. Inconclusive means that the source gave no clear call. Such entries were picked first, then a sample of the others. Rule as the data show it: active = max response below about -50%; inconclusive = no clear call, values can overlap the other calls; inactive = above that.
% is scaled to controls: 0 for no effect and ±100 for the full control effect.

Amino acid sequences for entries named in this document (tags omitted).
UniProt P35462, whole entry, looked up: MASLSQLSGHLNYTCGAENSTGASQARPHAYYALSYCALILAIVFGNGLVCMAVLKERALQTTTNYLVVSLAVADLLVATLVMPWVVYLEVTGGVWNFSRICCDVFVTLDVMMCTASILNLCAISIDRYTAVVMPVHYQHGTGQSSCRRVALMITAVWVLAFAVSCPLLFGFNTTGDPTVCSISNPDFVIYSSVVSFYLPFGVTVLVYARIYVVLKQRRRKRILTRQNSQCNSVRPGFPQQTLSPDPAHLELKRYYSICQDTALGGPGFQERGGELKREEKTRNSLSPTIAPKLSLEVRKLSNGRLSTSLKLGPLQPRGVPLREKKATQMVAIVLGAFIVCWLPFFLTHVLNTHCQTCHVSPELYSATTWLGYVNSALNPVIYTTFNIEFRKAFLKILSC

Each molecule was assayed against D(3) dopamine receptor (Homo sapiens) (UniProt P35462) (assay: qHTS of D3 Dopamine Receptor Antagonist: qHTS). Conditions: D3R cells, DiscoveRx beta-arrestin luminescence, antagonist mode; stronger effect = lower value.
Summary of the method: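 Cells expressing the human receptor were seeded at 1500 cells/well, incubated overnight at 37 degrees C in 5% CO2, then exposed to library compounds with dopamine controls for 90 minutes at 37 degrees C before luminescent detection.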
In the case of CCCc1nc2ccccc2c(=O)n1-c1ccc(OC)cc1, the max response, negative = inhibition is reported as inconclusive: -38%. In the case of CCOc1ccc(N2C(=O)/C(=C\c3cccs3)C(=O)NC2=S)cc1, the max response, negative = inhibition is reported as inconclusive: -40.6%. With COc1ccc(C(=O)C2CCCN(C3CSCCSC3)C2)c(C)c1 (stereo unspecified) the max response, negative = inhibition was inconclusive: -36.7%. In the case of COC(=O)C1=C(c2ccc(F)cc2F)C[C@@H]2CC[C@H]1N2C(=O)NC(C)C, the max response, negative = inhibition is reported as inconclusive: -35.1%. O=c1[nH]c(=S)n(-c2ccc(Cl)cc2)c(O)c1C=Nc1ccc(N2CCOCC2)cc1 was tested, and the max response, negative = inhibition was inactive: -8.63%. With COC(=O)c1c(C)[nH]c(C(=O)C(Cc2ccccc2)N(C)C)c1C (stereo unspecified) the max response, negative = inhibition was inconclusive: -31.7%. For CCCCOC(=O)C1=C(N)OC2=C(C(=O)CCC2)[C@]12C(=O)N(C)c1ccccc12, the max response, negative = inhibition was active: -53.7%. With CCCN1CC[C@@H]2c3cc(O)ccc3CC[C@@H]21 the max response, negative = inhibition was inactive: 10.3%. With CCC(C)N1C(=O)/C(=C\c2cc3c4c(c2)CCCN4CCC3)C(=O)NC1=S (stereo unspecified) the max response, negative = inhibition was inactive: -11%. With COC(=O)C1=C(c2cccc(OCc3ccccc3)c2)C[C@@H]2CC[C@H]1N2C(=O)NCc1ccccc1C(F)(F)F the max response, negative = inhibition was inconclusive: -45.2%. Brc1ccc2c(c1)C(OC1CN3CCC1CC3)c1ccccc1CS2 (stereo unspecified) was tested, and the max response, negative = inhibition was inconclusive: -31.5%. For CS(=O)(=O)c1ccc(C2=C(CNC(=O)c3ccc([N+](=O)[O-])cc3)[C@H]3CC[C@@H](C2)N3Cc2ccccc2)cc1, the max response, negative = inhibition was active: -85.7%. With NC(=O)c1ccsc1NC(=O)COC(=O)Cc1ccccc1 the max response, negative = inhibition was inactive: 20.8%. In the case of CC(C)c1ccc(N2C(=O)NC(=O)/C(=C/C=C/c3ccco3)C2=O)cc1, the max response, negative = inhibition is reported as inconclusive: -30.2%. For CN(C(=O)c1ccco1)C1(c2ccccc2Cl)CCCCC1=O (stereo unspecified), the max response, negative = inhibition was active: -52.6%. For Cn1c(O)c(C(c2ccncc2)c2c(O)n(C)c(=S)n(C)c2=O)c(=O)n(C)c1=S, the max response, negative = inhibition was inconclusive: -48.6%. For Brc1ccccc1CNCCc1ccc2c(c1)OCO2, the max response, negative = inhibition was inconclusive: -47.5%. Cc1cccc(-n2c(-c3ccccc3)nc3ccccc3c2=O)n1 was tested, and the max response, negative = inhibition was inconclusive: -30.9%. CCN1CCN(Cc2cc(Br)cc(OC)c2O)CC1 was tested, and the max response, negative = inhibition was active: -52.9%. With COC(=O)C1=C(c2ccc(Cl)c(C(F)(F)F)c2)C[C@@H]2CC[C@H]1N2C(=O)NCCOc1ccc(OC)cc1 the max response, negative = inhibition was inconclusive: -46.8%. For O=c1[nH]c(=O)n(Cc2ccccc2)c(O)c1C=Nc1ccc(CN2CCOCC2)cc1, the max response, negative = inhibition was inconclusive: -47.5%. For COc1ccc(C[C@@H]2c3cc(O)c(OC)cc3CCN2C)cc1O, the max response, negative = inhibition was active: -117%. With Fc1ccccc1N1CCN(Cc2c(F)cccc2F)CC1 the max response, negative = inhibition was inconclusive: -39.4%. For COc1ccc(-c2nn(CCC#N)cc2C(=O)Nc2ccccc2Cl)cc1, the max response, negative = inhibition was inactive: -7.3%. CCCCCSc1cc(OC)c(CCNC)cc1OC was tested, and the max response, negative = inhibition was inconclusive: -35.4%. Oc1ccc2ccccc2c1CN1CC=C(c2ccccc2)CC1 was tested, and the max response, negative = inhibition was inconclusive: -39.2%. In the case of COc1cccc(CN2CCNCC2)c1, the max response, negative = inhibition is reported as inconclusive: -32.3%. With C[N+]1(C)C2CC[C@H]1CC(OC(=O)C(CO)c1ccccc1)C2 (stereo partly specified) the max response, negative = inhibition was active: -67%. For COC(=O)C1=C(C(=O)OC)SC2(S1)C(C(=O)OC)=C(C(=O)OC)Sc1c2ssc1=O, the max response, negative = inhibition was active: -95.6%. COc1ccc(C(CNC(=O)c2ccc3c(c2)CCC3)N(C)C)cc1 (stereo unspecified) was tested, and the max response, negative = inhibition was active: -80.6%. Cc1ccc(O)c(CN2CCN(c3ccccc3)CC2)c1 was tested, and the max response, negative = inhibition was active: -80%. FC(F)(F)c1ccc2c(c1)N(CCCN1CCN(CCCl)CC1)c1ccccc1S2 was tested, and the max response, negative = inhibition was active: -77.7%. For C[C@]12CCC(=O)C=C1CC[C@@H]1C2CC[C@]2(C)C(=O)CCC12 (stereo partly specified), the max response, negative = inhibition was inactive: -4.59%. CC1(C)CN=C(NCc2ccccc2Cl)S1 was tested, and the max response, negative = inhibition was inconclusive: -31.7%. In the case of CC(C)(C)NC(=S)N1Cc2ccccc2-n2nncc2C1, the max response, negative = inhibition is reported as inconclusive: -34.8%. For CC(Cc1ccccc1)/[N+]([O-])=C\c1ccc(C(F)(F)F)cc1 (stereo unspecified), the max response, negative = inhibition was inconclusive: -32%. In the case of COc1ccc(CN2CCN(Cc3ccccc3OC)CC2)cc1, the max response, negative = inhibition is reported as inconclusive: -45.7%. O=c1[nH]c(=S)n(-c2ccc(Br)cc2)c(O)c1C=Nc1ccc(N2CCOCC2)cc1 was tested, and the max response, negative = inhibition was inactive: -20.9%. With COc1ccc2ccc(O)c(CN3CC=C(c4ccccc4)CC3)c2c1 the max response, negative = inhibition was inconclusive: -45.7%. c1ccc2c(CN3CCCCCC3)c[nH]c2c1 was tested, and the max response, negative = inhibition was inconclusive: -31.3%. COC(=O)C12CCc3c(ccc4cc(OC)ccc34)C1=CC(=O)C2 (stereo unspecified) was tested, and the max response, negative = inhibition was inactive: 6.37%. With Clc1cccc(Cl)c1CN1CCN(c2ccccc2)CC1 the max response, negative = inhibition was inconclusive: -45.7%. CS(=O)(=O)c1ccc(C2=C(CNC(=O)c3ccc([N+](=O)[O-])cc3)[C@H]3CC[C@@H](C2)N3CCOc2ccccc2)cc1 was tested, and the max response, negative = inhibition was inconclusive: -33.3%. For C/C(O)=C(\C#N)C(=O)Nc1cc(Br)ccc1Br, the max response, negative = inhibition was inconclusive: -37.4%. In the case of Cc1nc2cc(C(F)(F)F)ccc2n1C1CCN(Cc2nnnn2Cc2cccs2)CC1, the max response, negative = inhibition is reported as inactive: -4.8%. With CC1C2Cc3ccc(O)cc3[C@]1(C)CCN2CCc1ccccc1 (stereo partly specified) the max response, negative = inhibition was active: -93.1%. With O=c1[nH]c(=O)n(-c2ccccc2Cl)c(O)c1C=NCCN1CCCCC1 the max response, negative = inhibition was inconclusive: -36.2%. With COc1ccccc1N1CCN(Cc2c(F)cccc2F)CC1 the max response, negative = inhibition was active: -68.5%. For FC(F)(F)C1=NC(C(F)(F)F)=NP(N2CCOCC2)(N2CCOCC2)=N1, the max response, negative = inhibition was inconclusive: -32.2%. For COc1cc(CN2CC=C(c3ccc(F)cc3)CC2)cc(OC)c1, the max response, negative = inhibition was active: -87.5%. For CN1C(=O)/C(=C\c2ccc(N3CCCCC3)o2)C(=O)NC1=S, the max response, negative = inhibition was inconclusive: -48.3%. O=[N+]([O-])c1ccccc1CNCCc1ccc(F)cc1 was tested, and the max response, negative = inhibition was inconclusive: -40.2%. With CN(C)C1CCc2[nH]c3c(F)cc(F)cc3c2C1 (stereo unspecified) the max response, negative = inhibition was active: -105%. S=C1CN=C(c2ccccc2)c2cc(Cl)ccc2N1 was tested, and the max response, negative = inhibition was inconclusive: -47.2%. In the case of O=C(Cc1ccccc1)N1CCN(Cc2ccc([N+](=O)[O-])cc2)CC1, the max response, negative = inhibition is reported as inactive: 0.603%. With CC(C)c1ccc(OCC(=O)N2CCN(C)CC2)c(Br)c1 the max response, negative = inhibition was active: -52%. For CC(=O)OC(C)(C)/C=C/C(=O)C(C)(O)C1[C@H](O)C[C@@]2(C)C3CC=C4C(CC[C@@H](O)C4(C)C)[C@]3(CO)C(=O)C[C@]12C (stereo partly specified), the max response, negative = inhibition was inactive: 0.466%. COC(=O)C1=C(c2ccc(F)cc2F)C[C@@H]2CC[C@H]1N2C(=O)NCc1ccc(F)cc1 was tested, and the max response, negative = inhibition was inconclusive: -44.4%. OC(c1ccccc1)(c1ccccc1)C1CCNCC1 was tested, and the max response, negative = inhibition was inactive: -7.88%. With COc1ccccc1N1C(=O)NC(=O)/C(=C\c2cnn(-c3ccccc3)c2)C1=O the max response, negative = inhibition was inactive: 11.8%. With CCOP(=O)(OCC)C(c1ccccc1)N(C)C=O (stereo unspecified) the max response, negative = inhibition was inconclusive: -32.9%. O=C(c1ccccc1)c1ccc(N=Nc2c(O)[nH]c(=O)[nH]c2=O)cc1 was tested, and the max response, negative = inhibition was inconclusive: -31.1%. For COc1ccc(CCN)cc1S(N)(=O)=O, the max response, negative = inhibition was inactive: -24.2%. O=C(c1ccc2c(c1)OCO2)C1CCCN(CC2CCCCC2)C1 (stereo unspecified) was tested, and the max response, negative = inhibition was active: -82.8%. For CN1CCN(Cc2ccc(Br)s2)CC1, the max response, negative = inhibition was active: -77.4%. For COc1ccc(CCNC(C)CCc2ccc(OC)cc2)cc1 (stereo unspecified), the max response, negative = inhibition was active: -52%. COc1ccc(CN2Cc3cnnn3-c3ccccc3C2C#N)cc1 (stereo unspecified) was tested, and the max response, negative = inhibition was active: -77.6%. COc1ccc(-c2nc3ccccc3c(=O)n2-c2nccs2)cc1 was tested, and the max response, negative = inhibition was inactive: 4.73%. With COc1ccc(CN2CCN(c3ccccc3)CC2)c(C)c1C the max response, negative = inhibition was active: -75.3%. With Cc1ccc(N2CCN(CCc3ccccc3)CC2)cc1 the max response, negative = inhibition was active: -66%. O=C1NC(=O)N(Cc2ccccc2)C(=O)/C1=C\C=C\c1ccco1 was tested, and the max response, negative = inhibition was inactive: -19%. With CCOC(=O)C1SC2(C(F)(F)F)CC1(O)c1c(C)cc(C)nc1O2 (stereo unspecified) the max response, negative = inhibition was inconclusive: -30.4%. With O=C(CNS(=O)(=O)c1ccc(Br)s1)N1CCC2(CC1)OCCO2 the max response, negative = inhibition was active: -54.6%. CC(=O)C1C(N2CC2)CC2C3CC=C4CC(O)CCC4(C)C3CCC21C (stereo unspecified) was tested, and the max response, negative = inhibition was inconclusive: -39.2%. In the case of O=C(COc1ccccc1)c1cn(Cc2ccccc2)c2ccccc12, the max response, negative = inhibition is reported as inconclusive: -30.3%. With CC(=O)Nc1ccccc1C(=O)OCc1ccc(C(=O)c2ccccc2)cc1 the max response, negative = inhibition was inactive: 47.8%. With O=C(CCCN1CCC(n2c(=O)[nH]c3ccccc32)CC1)c1ccc(F)cc1 the max response, negative = inhibition was active: -103%. For CN1CCN(Cc2ccc3ccccc3c2)CC1, the max response, negative = inhibition was inactive: -20.4%. In the case of COCCOC(=O)c1c(N)n(Cc2ccco2)c2nc3ccccc3nc12, the max response, negative = inhibition is reported as inactive: 9.96%. In the case of CCN(CC)P(=O)(NC(=O)C(Cl)(Cl)Cl)N(CC)CC.[Cl-].[Cl-].[Cl-].[Nd+3], the max response, negative = inhibition is reported as inactive: -13.3% and inactive: 1.45%. In the case of NC(Cc1ccccc1)c1nn[nH]n1 (stereo unspecified), the max response, negative = inhibition is reported as inconclusive: -38.2%. With Cc1ccc(Cn2nnnc2CN2CCC(n3nnc4ccccc43)CC2)cc1 the max response, negative = inhibition was active: -69%. In the case of C[C@@H]1CN(C2CCC(C#N)(c3ccc(F)cc3)CC2)CC[C@]1(C(=O)O)c1ccccc1 (stereo partly specified), the max response, negative = inhibition is reported as inconclusive: -32.7%. For CC(C)(C)C(=O)N1Cc2ccccc2-n2nncc2C1, the max response, negative = inhibition was inconclusive: -42.7%. CCN(CC)c1ccc(CN2CC=C(c3ccc(F)cc3)CC2)cc1 was tested, and the max response, negative = inhibition was active: -67.1%. With OC1(CN2CCOCC2)C2CC3CC(C2)CC1C3 (stereo unspecified) the max response, negative = inhibition was inconclusive: -33.3%. c1ccc(CN2CCc3nc4ccccc4cc3C2)cc1 was tested, and the max response, negative = inhibition was inactive: -10.4%. For O=C(O)C1(Br)CC12c1ccccc1-c1ccccc12 (stereo unspecified), the max response, negative = inhibition was inconclusive: -32.6%. In the case of CCN(CC)CCCOC(=O)C(OC(C)C)(c1ccccc1)c1ccccc1, the max response, negative = inhibition is reported as active: -101%. With CCN1CCN(c2cn[nH]c(=O)c2Cl)CC1 the max response, negative = inhibition was active: -74.9%. For C=CCn1c(O)c(C(CC)=NCCCO)c(=O)[nH]c1=O, the max response, negative = inhibition was inconclusive: -36%.
